# US6066628A, “Non-iron metalloporphyrins and methods of use” (Emory University, priority 1998, dated 2000)
# For at least one compound, name, drawing or mass did not settle the structure.
# Test system: M. smegmatis
# Type: cell-based, Mycobacterium smegmatis
compound,measurement,value
"CCC1=C(CC)c2cc3[nH]c(cc4nc(cc5[nH]c(cc1n2)c(CC)c5CC)C(CC)=C4CC)c(CC)c3CC [OEP, octaethylporphine, reference compound]",antibacterial activity,limited activity
